Four molecules from doi:10.1101/2024.12.01.626218 can be followed below.

By UniProt entry, the sequences of proteins in these tests, tags left out.
UniProt Q99LZ3: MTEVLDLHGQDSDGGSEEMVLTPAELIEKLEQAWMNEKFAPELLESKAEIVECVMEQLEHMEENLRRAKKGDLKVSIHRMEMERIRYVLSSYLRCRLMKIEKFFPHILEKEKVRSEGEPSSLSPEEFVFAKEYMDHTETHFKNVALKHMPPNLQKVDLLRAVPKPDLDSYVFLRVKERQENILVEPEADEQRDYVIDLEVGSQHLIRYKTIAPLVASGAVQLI
UniProt Q61881: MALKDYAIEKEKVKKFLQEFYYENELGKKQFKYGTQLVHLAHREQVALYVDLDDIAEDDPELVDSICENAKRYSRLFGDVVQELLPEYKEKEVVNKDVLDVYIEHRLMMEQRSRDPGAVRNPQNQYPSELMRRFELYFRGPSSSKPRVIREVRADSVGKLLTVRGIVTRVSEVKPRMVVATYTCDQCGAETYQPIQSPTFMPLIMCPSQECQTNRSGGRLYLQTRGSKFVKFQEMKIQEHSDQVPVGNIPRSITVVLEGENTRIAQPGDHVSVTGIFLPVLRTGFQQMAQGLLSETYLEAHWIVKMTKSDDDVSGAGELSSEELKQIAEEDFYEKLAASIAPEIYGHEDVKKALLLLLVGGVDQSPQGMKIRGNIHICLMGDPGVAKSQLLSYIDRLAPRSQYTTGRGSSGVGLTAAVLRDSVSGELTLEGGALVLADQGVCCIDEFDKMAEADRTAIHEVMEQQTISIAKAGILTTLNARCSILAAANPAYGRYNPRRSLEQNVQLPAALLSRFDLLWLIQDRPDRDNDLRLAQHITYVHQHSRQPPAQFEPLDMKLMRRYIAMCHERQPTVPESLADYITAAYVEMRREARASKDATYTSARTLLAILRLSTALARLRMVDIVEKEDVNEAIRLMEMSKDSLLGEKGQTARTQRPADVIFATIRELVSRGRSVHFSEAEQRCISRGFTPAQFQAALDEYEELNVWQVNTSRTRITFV
UniProt Q8BIW9: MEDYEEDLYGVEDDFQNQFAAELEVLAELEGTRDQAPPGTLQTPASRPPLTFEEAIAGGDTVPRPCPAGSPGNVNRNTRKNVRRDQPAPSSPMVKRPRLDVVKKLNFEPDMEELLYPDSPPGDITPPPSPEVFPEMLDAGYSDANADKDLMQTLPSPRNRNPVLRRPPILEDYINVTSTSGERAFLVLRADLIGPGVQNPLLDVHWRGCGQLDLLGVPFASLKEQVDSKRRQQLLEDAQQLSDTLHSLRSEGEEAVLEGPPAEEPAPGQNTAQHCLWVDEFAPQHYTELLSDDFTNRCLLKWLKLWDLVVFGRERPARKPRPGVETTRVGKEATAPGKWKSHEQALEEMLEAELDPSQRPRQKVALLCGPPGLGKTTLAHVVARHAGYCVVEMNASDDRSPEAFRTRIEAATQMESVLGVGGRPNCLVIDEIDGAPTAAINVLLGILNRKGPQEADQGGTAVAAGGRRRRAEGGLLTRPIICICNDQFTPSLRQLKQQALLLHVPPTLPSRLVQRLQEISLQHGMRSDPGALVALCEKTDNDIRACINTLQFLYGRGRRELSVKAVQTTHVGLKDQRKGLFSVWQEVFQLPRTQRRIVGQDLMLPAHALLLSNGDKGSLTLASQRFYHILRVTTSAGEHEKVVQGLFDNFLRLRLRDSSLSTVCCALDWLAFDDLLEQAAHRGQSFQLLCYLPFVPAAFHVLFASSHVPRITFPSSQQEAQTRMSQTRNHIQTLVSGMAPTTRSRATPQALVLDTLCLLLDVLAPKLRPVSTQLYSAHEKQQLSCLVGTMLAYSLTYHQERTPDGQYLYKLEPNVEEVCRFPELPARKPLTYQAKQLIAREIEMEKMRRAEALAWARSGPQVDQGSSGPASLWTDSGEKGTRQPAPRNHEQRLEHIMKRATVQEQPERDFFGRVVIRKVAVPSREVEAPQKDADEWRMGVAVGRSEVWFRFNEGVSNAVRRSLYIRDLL

In experiment [1] the target is GFP-SLD5 (subunit of the CMG helicase, used to isolate CMG) (mouse) (UniProt Q99LZ3). Nature of the experiment: co-IP.
Experiment [2] addresses T1, DBD-TRAIP 307-333 (mouse) (UniProt Q8VIG6).
T1 sequence: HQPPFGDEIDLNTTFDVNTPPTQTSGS
Briefly: two-hybrid.

Results are given in words; binding and its absence hold for the method and conditions named. For some of these results: In cells and extracts the contact can be indirect. Some entries that bind do so weakly or less than the wild type. For some of these results: Sequences can lack the tags named with a protein.

With MCM7 (from UniProt Q61881 1-719), the binding result in experiment [1] was “binds”.

With CTF18 (from UniProt Q8BIW9 1-969), in experiment [1], the binding result is reported as “binds”.

B1: AD-TTF2 1-96 (domain or fragment, UniProt Q5NC05 1-96)
chain: MDLVKCPEHGDACFLKTGVRDGPNKGKSFYVCRTNTCGFVQATDIPVSHCLLHEEFVVELQGLFLPQDKKEWRLFFRCARTKAEGKQWCGNVPWRQ
Turning to B1, in experiment [2], the binding entry is “binds”.

B2: MCM3 (protein, UniProt P25206 1-812)
chain: MAGTVVLDDVELREAQRDYLDFLDDEEDQGIYQNKVRELISDNQYRLIVSVNDLRRKNEKRANRLLNNAFEELVAFQRALKDFVASIDATYAKQYEEFYIGLEGSFGSKHVSPRTLTSCFLSCVVCVEGIVTKCSLVRPKVVRSVHYCPATKKTIERRYSDLTTLVAFPSSSVYPTKDEENNPLETEYGLSVYKDHQTITIQEMPEKAPAGQLPRSVDVILDDDLVDKVKPGDRIQVVGTYRCLPGKKGCYTSGTFRTVLIACNVKQMSKDIQPAFSADDIAKIKKFSKTRSKDVFEQLARSLAPSIHGHDYVKKAILCLLLGGVERELENGSHIRGDINILLIGDPSVAKSQLLRYVLCTAPRAIPTTGRGSSGVGLTAAVTTDQETGERRLEAGAMVLADRGVVCIDEFDKMSDMDRTAIHEVMEQGRVTIAKAGIHARLNARCSVLAAANPVYGRYDQYKTPMENIGLQDSLLSRFDLLFIMLDQMDPEQDREISDHVLRMHQYRAPGEQDGDALPLGSSVDILATDDPDFTQDDQQDTRIYEKHDSLLHGTKKKKEKMVSAAFMKKYIHVAKIIKPTLTQESAAYIAEEYSRLRSQDSMSSDTARTSPVTARTLETLIRLATAHAKARMSKTVDLQDAEEAVELVQYAYFKKVLEKEKKRKKASEDESDLEDEEEKSQEDTEQKRKRRKTHAKDGESYDPYDFSEAETQMPQVHTPKTDDSQEKTDDSQETQDSQKVELSEPRLKAFKAALLEVFQEAHEQSVGMLHLTESINRNREEPFSSEEIQACLSRMQDDNQVMVSEGIVFLI
modifications: ubiquitylated in part after Calyculin A
On to B2, for which the binding result in experiment [1] was “binds”.
